Measurements reported in PubChem BioAssay AID504804 (Drosophila RNAi Screening Center, 2011).

- Purpose: 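Fly genes whose loss lessens doxorubicin-driven cell death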 (primary screen)
- Cell system: Drosophila Kc cells
- Reagents: long dsRNA against Drosophila genes, 0.5 µg dsRNA per well
- Duration: 96 h (48 h knock-down, then 48 h drug)
- Challenge: doxorubicin 5 µg/ml for 48 h, added 48 h after dsRNA
- Read-out: 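Luminescent ATP counts per replicate, not normalised, reflecting viable cells after 48 h dsRNA knock-down followed by 48 h of 5 µg/ml doxorubicin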
- Reading the numbers: raw ATP luminescence: higher = more viable cells, protection from doxorubicin
- Active means: 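Active when both duplicate wells lie at least 2 SD above the plate mean and protection is confirmed by rescreening and independent dsRNAs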
In all, the deposit lists about 19,000 reagents; below is a random part of those with a known target gene and a result. In the full data, 47 (0.25%) are marked active. 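Signals are raw, not normalised; exact z-scores behind calls not deposited; actives needed confirmation, so some wells reaching 2 SD are inactive.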 Reagents against one gene are numbered here. Names joined by + are all predicted targets of the reagent.

| target gene | reagent | raw ATP luminescence, replicate 1 | raw ATP luminescence, replicate 2 | Call |
| --- | --- | --- | --- | --- |
| Rh4 (GeneID 39887) | 1 | 44067 | 39450 | inactive |
| CG16965 (GeneID 34607) | 1 | 38780 | 52350 | inactive |
| FBXO11 (GeneID 41209) | 1 | 92443 | 31757 | inactive |
| CG17219 (GeneID 33515) | 1 | 23080 | 18153 | inactive |
| fd96Cb (GeneID 43011) | 1 | 63640 | 67550 | inactive |
| CG42735 (retired record) (GeneID 10178938) | 1 | 2.80e5 | 3.28e5 | inactive |
| RpL35A (GeneID 40654) | 1 | 46060 | 43517 | inactive |
| CG33325 (GeneID 2768664) | 1 | 71663 | 79667 | inactive |
| Eip75B (GeneID 39999) | 1 | 16100 | 12143 | inactive |
| Cdep (GeneID 40608) | 1 | 71280 | 51600 | inactive |
| Cdep (GeneID 40608) | 2 | 39147 | 33100 | inactive |
| Cdep (GeneID 40608) | 3 | 47650 | 48327 | inactive |
| glob2 (GeneID 40807) | 1 | 58347 | 55660 | inactive |
| ScsbetaG (GeneID 44001) | 1 | 74680 | 81283 | inactive |
| CG13135 (GeneID 34345) | 1 | 36737 | 76253 | inactive |
| zda (GeneID 37144) | 1 | 66177 | 46367 | inactive |
| CG31089 (GeneID 43135) | 1 | 64620 | 62380 | inactive |
| CG2614 (GeneID 35326) | 1 | 1.68e5 | 1.81e5 | inactive |
| I-3 (GeneID 33068) | 1 | 3.07e5 | 2.71e5 | inactive |
| CG14628 (GeneID 31057) | 1 | 61970 | 74250 | inactive |
| CG6931 (GeneID 39363) | 1 | 38810 | 41540 | inactive |
| Hmg-2 (GeneID 37407) | 1 | 62403 | 53500 | inactive |
| CG11356 (GeneID 32178) | 1 | 3.06e5 | 3.05e5 | inactive |
| CG17636 (GeneID 5740847) | 1 | 3.66e5 | 3.53e5 | inactive |
| CG11626 (GeneID 42323) | 1 | 68180 | 76060 | inactive |
| CG30154 (GeneID 246487) | 1 | 1.73e5 | 89687 | inactive |
| PH4alphaEFB (GeneID 43620) | 1 | 63860 | 54400 | inactive |
| Tsen34 + Trl | 1 | 87373 | 55690 | inactive |
| CG34434 (GeneID 31472) | 1 | 23660 | 44310 | inactive |
| ptc (GeneID 35851) | 1 | 97227 | 89593 | inactive |
| ptc (GeneID 35851) | 2 | 48043 | 75443 | inactive |
| Tgi (GeneID 39521) | 1 | 77390 | 61623 | inactive |
| Tgi (GeneID 39521) | 2 | 66867 | 58720 | inactive |
| Ubx (GeneID 42034) | 1 | 60680 | 54830 | inactive |
| CG8490 (GeneID 36338) | 1 | 80923 | 52773 | inactive |
| SP1173 (GeneID 38744) | 1 | 29937 | 40680 | inactive |
| CR14798 (GeneID 31126) | 1 | 55690 | 25150 | inactive |
| Gr94a (GeneID 117339) | 1 | 2.77e5 | 2.07e5 | inactive |
| drd (GeneID 318102) | 1 | 3.31e5 | 3.39e5 | inactive |
| red (GeneID 41738) | 1 | 45930 | 15760 | inactive |
| CG9649 (GeneID 41727) | 1 | 51627 | 19597 | inactive |
| CG42656 (GeneID 10178806) | 1 | 49110 | 66330 | inactive |
| Hs6st (GeneID 42380) | 1 | 28580 | 24360 | inactive |
| Hs6st (GeneID 42380) | 2 | 59730 | 64880 | inactive |
| Hs6st (GeneID 42380) | 3 | 63780 | 59640 | inactive |
| Dera (GeneID 36358) | 1 | 69210 | 67463 | inactive |
| CG4074 + CG4186 | 1 | 77757 | 69073 | inactive |
| CG32196 (GeneID 317908) | 1 | 81983 | 1.10e5 | inactive |
| ProtA (GeneID 34866) | 1 | 43100 | 46970 | inactive |
| Or30a (GeneID 34236) | 1 | 41490 | 60723 | inactive |
| Taf6 (GeneID 40134) | 1 | 22753 | 22070 | inactive |
| ZnT86D (GeneID 41342) | 1 | 65513 | 44227 | inactive |
| Smr (GeneID 32225) | 1 | 57810 | 64460 | inactive |
| hng1 (GeneID 37412) | 1 | 64680 | 52967 | inactive |
| CG32564 (GeneID 326222) | 1 | 4.52e5 | 3.78e5 | inactive |
| CG10555 (GeneID 31771) | 1 | 21370 | 26290 | inactive |
| Pfdn1 (GeneID 33857) | 1 | 21150 | 26907 | inactive |
| GlcAT-P (GeneID 39262) | 1 | 39407 | 41117 | inactive |
| GlcAT-P (GeneID 39262) | 2 | 51273 | 59047 | inactive |
| CG15423 (GeneID 33616) | 1 | 28623 | 43747 | inactive |
| CG6304 (GeneID 35032) | 1 | 46407 | 76517 | inactive |
| CAH8 (GeneID 42625) | 1 | 82400 | 46600 | inactive |
| srl (GeneID 40562) | 1 | 67480 | 52437 | inactive |
| CG42726 + CG42727 | 1 | 33527 | 22173 | inactive |
| Ada2b (GeneID 40966) | 1 | 66153 | 78337 | inactive |
| CG42680 (GeneID 10178899) | 1 | 2.89e5 | 2.60e5 | inactive |
| Gr33a (GeneID 34641) | 1 | 76553 | 77227 | inactive |
| Cyp313a5 (GeneID 41486) | 1 | 51897 | 48983 | inactive |
| CG32642 (GeneID 318137) | 1 | 2.23e5 | 2.40e5 | inactive |
| CG5273 (GeneID 31021) | 1 | 40820 | 68880 | inactive |
| CG33281 (GeneID 2768938) | 1 | 30617 | 38307 | inactive |
| Cchl (GeneID 42590) | 1 | 49007 | 52743 | inactive |
| CG17931 + CG42446 | 1 | 77230 | 64930 | inactive |
| Oscillin (GeneID 33783) | 1 | 1.03e5 | 84337 | inactive |
| CG17816 (GeneID 40928) | 1 | 58400 | 61783 | inactive |
| CG31709 (GeneID 261620) | 1 | 3.04e5 | 3.39e5 | inactive |
| NiPp1 (GeneID 44748) | 1 | 59487 | 60967 | inactive |
| sNPF (GeneID 35286) | 1 | 49190 | 48890 | inactive |
| Mef2 (GeneID 36032) | 1 | 55203 | 47527 | inactive |
| CG2574 (GeneID 32190) | 1 | 4.17e5 | 3.33e5 | inactive |
| CG15525 (GeneID 43556) | 1 | 54020 | 52450 | inactive |
| CG31482 (GeneID 40806) | 1 | 56373 | 57163 | inactive |
| CG12093 (GeneID 38343) | 1 | 76083 | 59520 | inactive |
| CG14277 (GeneID 34129) | 1 | 54820 | 85447 | inactive |

6 entries from above, set out differently.
{"target gene":"CG8490 (GeneID 36338)","reagent":1,"raw ATP luminescence, replicate 1":80923,"raw ATP luminescence, replicate 2":52773,"Call":"inactive"}
{"target gene":"SP1173 (GeneID 38744)","reagent":1,"raw ATP luminescence, replicate 1":29937,"raw ATP luminescence, replicate 2":40680,"Call":"inactive"}
{"target gene":"CR14798 (GeneID 31126)","reagent":1,"raw ATP luminescence, replicate 1":55690,"raw ATP luminescence, replicate 2":25150,"Call":"inactive"}
{"target gene":"Gr94a (GeneID 117339)","reagent":1,"raw ATP luminescence, replicate 1":2.77e5,"raw ATP luminescence, replicate 2":2.07e5,"Call":"inactive"}
{"target gene":"drd (GeneID 318102)","reagent":1,"raw ATP luminescence, replicate 1":3.31e5,"raw ATP luminescence, replicate 2":3.39e5,"Call":"inactive"}
{"target gene":"red (GeneID 41738)","reagent":1,"raw ATP luminescence, replicate 1":45930,"raw ATP luminescence, replicate 2":15760,"Call":"inactive"}
